# Test results taken from patent publication US20100111943A1, “COMPOSITIONS AND METHODS FOR INHIBITING CANCER METASTASIS” (Medical College of Georgia Research Institute, Inc, priority 2007, published 2010).
# No constants are given. Whether binding was seen depends on the method and setting. In cells and extracts the contact can be indirect. Some results given as binding are weak or reduced against the parent protein; the word gives no strength.
# Tests used:
# [1] = biological target: FLAG (F)-tagged hsp90α (wild type) (UniProt P07900); assay: co-immunoprecipitation in HEK293 cells
# [2] = biological target: FLAG (F)-tagged hsp90α (wild type) (UniProt P07900); assay: co-IP from transfected HEK293 cells: anti-HA.11 immunoprecipitates immunoblotted with anti-F
substance,measurement,setting,value
HA-tagged p300 (from UniProt Q09472 1-2414) (enzyme),binding,[1],binds
same,binding,[2],binds
